Test results from PubChem BioAssay AID192 (DTP/NCI, 2004).
The list shows only some results of the screen, not a fair sample: it gathers tests that were run many times, whatever their T/C, doses with no T/C, and many T/C values between a quarter and a half above the control. Further doses and runs are listed elsewhere. T/C: endpoint of the treated group in % of that of the vehicle group. Some entries give survivors of the animals treated and no T/C: the source files T/C as zero there, which appears to mark a toxic dose or a test without result, not a measured value. Some doses without a T/C left all or most animals alive at the check, yet need not have been tolerated: the source hardly ever lists a survival T/C far under the control, and the zero likely stands for such cases as well. Survivors were counted at the toxicity check, usually on the fifth day, unless a day is given; later deaths do not show. Schedules are NCI's codes, taken here to give the interval after Q, in days (D) or hours (H), and the number of doses after X. Some molecules as drawn cover several salts, stereoisomers or complexes of the source; a dose is that of the sample tested. Signs of the kind (2×) stand for listed records that agree. Where survival is the endpoint, this PubChem deposit counts one and a half times the control or more as active, and values a quarter to a half above the control carry no call in these data; other NCI protocols may use other cut-offs. Some entries hold several experiments; the values are given in rising order.

System: BDF1 mice, B16 melanoma ip, median survival T/C
Test: NCI In Vivo Anticancer Drug Screen. Data for tumor model B16 Melanoma (intraperitoneal) in B6D2F1 (BDF1) mice
Details: T/C endpoint: median survival time, higher T/C = longer survival
How it was run: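 Mice with transplantable tumors; drug vs vehicle groups; endpoint survival or tumor size; value = T/C.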

[1] = dose: 8.0 mg/kg/injection, schedule: Q01DX001 (ip), vehicle: water

For `CCCCNC(C)(C)COC(=O)/C=C/c1ccc(OCCCC)cc1`, the survivor count (dose: 200.0 mg/kg/injection, schedule: Q01DX009 (ip), vehicle: saline sonified) was 4 of 6.
In the case of `FC(F)(F)c1nc2nc(Cl)c(Cl)nc2[nH]1`, the survivor count (dose: 100.0 mg/kg/injection, schedule: Q01DX009 (ip), vehicle: saline with Tween-80) is reported as 6 of 10.
With `O=S1(=O)OCc2ccccc21` the survivor count (dose: 100.0 mg/kg/injection, schedule: Q01DX009 (ip), vehicle: Klucel (hydroxypropylcellulose) (HPC)) was 9 of 10.
For `NC(C/[N+]([O-])=N/O)C(=O)O` (stereo unspecified), the survivor count (dose: 125.0 mg/kg/injection, schedule: Q01DX009 (ip), vehicle: saline) was 10 of 10 (2×), the survivor count (dose: 125.0 mg/kg/injection, schedule: Q01DX009 (ip), vehicle: water) was 10 of 10 and the survivor count (dose: 250.0 mg/kg/injection, schedule: Q01DX009 (ip), vehicle: saline) was 10 of 10. For the same compound, the survivor count (dose: 250.0 mg/kg/injection, schedule: Q01DX009 (ip), vehicle: water) was 10 of 10, the survivor count (dose: 500.0 mg/kg/injection, schedule: Q01DX009 (ip), vehicle: saline) was 0 of 10 and the survivor count (dose: 500.0 mg/kg/injection, schedule: Q01DX009 (ip), vehicle: water) was 6 of 10. The survivor count (dose: 500.0 mg/kg/injection, schedule: Q04DX003 (ip), vehicle: saline) was 10 of 10.
For `O=C1c2ccccc2C(=O)c2c(NCCN3CCCCC3)ccc(NCCN3CCCCC3)c21`, the T/C (dose: 32.0 mg/kg/injection, schedule: Q01DX009 (ip), vehicle: acid diluted with saline) was 131 % of control, the survivor count (dose: 64.0 mg/kg/injection, schedule: Q01DX009 (ip), vehicle: acid diluted with saline) was 10 of 10 and the survivor count (dose: 128.0 mg/kg/injection, schedule: Q01DX009 (ip), vehicle: acid diluted with saline) was 6 of 10. For the same compound, the survivor count (dose: 256.0 mg/kg/injection, schedule: Q01DX009 (ip), vehicle: acid diluted with saline) was 0 of 10.
For `O=C(NP(=O)(N1CC1)N1CC1)c1cc(I)ccc1I`, the T/C (dose: 16.0 mg/kg/injection, schedule: Q02DX009 (ip), vehicle: saline with Tween-80) was 128 % of control, the T/C (dose: 32.0 mg/kg/injection, schedule: Q02DX009 (ip), vehicle: saline with Tween-80) was 148 % of control and the survivor count (dose: 128.0 mg/kg/injection, schedule: Q02DX009 (ip), vehicle: saline with Tween-80) was 10 of 10. The survivor count (dose: 128.0 mg/kg/injection, schedule: Q02DX009 (ip), vehicle: saline) was 10 of 10, the survivor count (dose: 256.0 mg/kg/injection, schedule: Q02DX009 (ip), vehicle: saline with Tween-80) was 5 of 10 and the survivor count (dose: 256.0 mg/kg/injection, schedule: Q02DX009 (ip), vehicle: saline) was 9 of 10. For the same compound, the survivor count (dose: 512.0 mg/kg/injection, schedule: Q02DX009 (ip), vehicle: saline with Tween-80) was 8 of 10 and the survivor count (dose: 512.0 mg/kg/injection, schedule: Q02DX009 (ip), vehicle: saline) was 9 of 10.
For `CC(N)Cc1ccccc1` (stereo unspecified), the survivor count (dose: 200.0 mg/kg/injection, schedule: Q01DX009 (ip), vehicle: saline) was 0 of 10 and the survivor count (dose: 400.0 mg/kg/injection, schedule: Q01DX009 (ip), vehicle: saline) was 0 of 10.
In the case of `[Cl][Hg][CH]1CCC2OC1CC[CH]2[Hg][Cl]` (stereo unspecified), the survivor count (dose: 12.5 mg/kg/injection, schedule: Q01DX009 (ip), vehicle: saline with Tween-80) is reported as 8 of 10 and the survivor count (dose: 25.0 mg/kg/injection, schedule: Q01DX009 (ip), vehicle: saline with Tween-80) is reported as 2 of 10.
For `O=NN(CCF)C(=O)NC1C(O)CCCC1O` (stereo unspecified), the T/C (dose: 3.75 mg/kg/injection, schedule: Q01DX001 (ip), vehicle: saline) was 126 % of control.
`O=C1NC(=O)C2(CCc3ccc(N(CCCl)CCCl)cc32)N1` (stereo unspecified) was tested, and the T/C (dose: 6.0 mg/kg/injection, schedule: Q01DX009 (ip), vehicle: saline with Tween-80) was 137 % of control, the survivor count (dose: 6.25 mg/kg/injection, schedule: Q01DX004 (oral), vehicle: saline with Tween-80) was 4 of 10 and the survivor count (dose: 24.0 mg/kg/injection, schedule: Q01DX009 (ip), vehicle: saline with Tween-80) was 10 of 10. For the same compound, the survivor count (dose: 25.0 mg/kg/injection, schedule: Q01DX004 (oral), vehicle: saline with Tween-80) was 5 of 10, the survivor count (dose: 48.0 mg/kg/injection, schedule: Q01DX009 (ip), vehicle: saline with Tween-80) was 10 of 10 and the survivor count (dose: 50.0 mg/kg/injection, schedule: Q01DX004 (oral), vehicle: saline with Tween-80) was 6 of 10. For the same compound, the survivor count (dose: 100.0 mg/kg/injection, schedule: Q01DX004 (oral), vehicle: saline with Tween-80) was 3 of 10 and the survivor count (dose: 200.0 mg/kg/injection, schedule: Q01DX004 (oral), vehicle: saline with Tween-80) was 5 of 10.
For `COc1cc2oc(=O)ccc2cc1[C@@H]1OC(=O)C2(C)O[C@@H]12` (stereo partly specified), the survivor count (dose: 2.5 mg/kg/injection, schedule: Q01DX009 (ip), vehicle: distilled water + Tween-80) was 10 of 10.
With `CCOC(=O)NC(C)(C)CC(C)(C)C` the survivor count (dose: 200.0 mg/kg/injection, schedule: Q01DX009 (ip), vehicle: Klucel (hydroxypropylcellulose) (HPC)) was 5 of 10 and the survivor count (dose: 400.0 mg/kg/injection, schedule: Q01DX009 (ip), vehicle: Klucel (hydroxypropylcellulose) (HPC)) was 4 of 10.
With `CCC1(O)CC2CN(CCc3c([nH]c4ccccc34)C(C(=O)OC)(c3cc4c(cc3OC)N(C)C3C(O)(C(=O)NCCO)C(O)C5(CC)C=CCN6CCC43C65)C2)C1` (stereo unspecified) the T/C (dose: 0.05 mg/kg/injection, schedule: Q01DX009 (ip), vehicle: saline) was 140 % of control, the T/C (dose: 0.1 mg/kg/injection, schedule: Q01DX009 (ip), vehicle: saline) was 140 % of control and the T/C (dose: 0.13 mg/kg/injection, schedule: Q01DX009 (ip), vehicle: water) was 126 and 140 % of control. For the same compound, the T/C (dose: 0.22 mg/kg/injection, schedule: Q01DX009 (ip), vehicle: water) was 149 % of control, the T/C (dose: 0.36 mg/kg/injection, schedule: Q01DX009 (ip), vehicle: water) was 136 % of control and the T/C (dose: 0.52 mg/kg/injection, schedule: Q04DX003 (ip), vehicle: water) was 125 and 137 % of control. The T/C (dose: 0.6 mg/kg/injection, schedule: Q01DX009 (ip), vehicle: water) was 126 % of control, the survivor count (dose: 0.6 mg/kg/injection, schedule: Q04DX003 (ip), vehicle: saline) was 9 of 10 and the T/C (dose: 0.86 mg/kg/injection, schedule: Q04DX003 (ip), vehicle: water) was 139 and 144 % of control. For the same compound, the survivor count (dose: 1.0 mg/kg/injection, schedule: Q01DX009 (ip), vehicle: water) was 10 of 10, the T/C (dose: 1.04 mg/kg/injection, schedule: Q01DX001 (ip), vehicle: water) was 131 % of control and the survivor count (dose: 1.6 mg/kg/injection, schedule: Q01DX009 (ip), vehicle: saline) was 5 of 6. The T/C (dose: 1.73 mg/kg/injection, schedule: Q01DX001 (ip), vehicle: water) was 126 and 132 % of control, the survivor count (dose: 2.78 mg/kg/injection, schedule: Q04DX003 (ip), vehicle: saline) was 10 of 10 and the T/C (dose: 2.9 mg/kg/injection, schedule: Q01DX001 (ip), vehicle: water) was 138 % of control. The survivor count (dose: 3.2 mg/kg/injection, schedule: Q01DX009 (ip), vehicle: saline) was 6 of 6, the survivor count (dose: 4.0 mg/kg/injection, schedule: Q04DX003 (ip), vehicle: water) was 10 of 10 and the survivor count (dose: 4.63 mg/kg/injection, schedule: Q04DX003 (ip), vehicle: saline) was 4 of 10. For the same compound, the survivor count (dose: 6.4 mg/kg/injection, schedule: Q01DX009 (ip), vehicle: saline) was 6 of 6, the T/C [1] was 134 % of control and the survivor count [1] was 9 of 10. For the same compound, the survivor count (dose: 12.8 mg/kg/injection, schedule: Q01DX009 (ip), vehicle: saline) was 0 of 6, the T/C (dose: 389.0 micrograms/kg/injection, schedule: Q04DX003 (ip), vehicle: saline) was 131 % of control (2×) and the T/C (dose: 648.0 micrograms/kg/injection, schedule: Q04DX003 (ip), vehicle: saline) was 147 % of control. For the same compound, the T/C (dose: 1080.0 micrograms/kg/injection, schedule: Q04DX003 (ip), vehicle: saline) was 147 % of control.
With `CNC(=O)Oc1coc(CCl)cc1=O` the survivor count (dose: 60.0 mg/kg/injection, schedule: Q01DX009 (ip), vehicle: Klucel (hydroxypropylcellulose) (HPC)) was 1 of 6.
In the case of `COC(=O)C1CCC(C(=O)O)CC1` (stereo unspecified), the survivor count (dose: 400.0 mg/kg/injection, schedule: Q04DX003 (ip), vehicle: Klucel (hydroxypropylcellulose) (HPC)) is reported as 9 of 10.
`C#CCOCC(CCl)OC(N)=O` (stereo unspecified) was tested, and the survivor count (dose: 400.0 mg/kg/injection, schedule: Q04DX003 (ip), vehicle: saline with Tween-80) was 4 of 10.
